Numbering of substitutions follows the chain as printed. Results are given in words; binding and its absence hold for the method and conditions named. Some results given as binding are weak or reduced against the parent protein; the word gives no strength.
B1: 13C5.5L2E (antibody, V domains shown)
VH: EVTLRESGPGLVKPTQTLTLTCTLYGFSLSTSDMGVDWIRQPPGKGLEWLAHIWWDDVKRYNPALKSRLTISKDTSKNQVVLKLTSVDPVDTATYYCARTVSSGYIYYAMDYWGQGTLVTVSS
VL: DIQMTQSPSSLSASVGDRVTISCRASQDIRNYLNWYQQKPGKAPKLLIFYTSMKPRGVPSRFSGSGSGTDYTLTISSLQPEDIATYYCQQGNTLPLTFGGGTKVEIK
B2: 13C5.5L3F (antibody, V domains shown)
VH: B1 VH
VL: B1 VL with M53K, K54L, P55H, R56S, N92L, L94P
B3: 13C5.5L2EL3F (antibody, V domains shown)
VH: B1 VH
VL: B1 VL with N92L, L94P

Protein sequences, listed by entry. Tags and fused reporters are not part of them. Residues count along the entry.
UniProt Q864V6, residues 21-132: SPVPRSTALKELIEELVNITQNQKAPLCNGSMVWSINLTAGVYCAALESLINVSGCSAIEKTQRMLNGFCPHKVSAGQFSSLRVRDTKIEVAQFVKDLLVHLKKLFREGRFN

target: rhesus IL-13 (rhesus) (UniProt Q864V6); assay: SPR (Biacore)

binding, binds:
B1, B2, B3

Source: US20140099313A1
